From article PMC10790703 (mBio, 2023)
No constants are given. Whether binding was seen depends on the method and setting. Binding seen in cells or lysates may run through a third protein. Some entries that bind do so weakly or less than the wild type.

Key:
Experiment in all cases: co-IP
[1] = biological target: T1, Calnexin (human (endogenous in 293T)) (UniProt P27824)
T1 sequence: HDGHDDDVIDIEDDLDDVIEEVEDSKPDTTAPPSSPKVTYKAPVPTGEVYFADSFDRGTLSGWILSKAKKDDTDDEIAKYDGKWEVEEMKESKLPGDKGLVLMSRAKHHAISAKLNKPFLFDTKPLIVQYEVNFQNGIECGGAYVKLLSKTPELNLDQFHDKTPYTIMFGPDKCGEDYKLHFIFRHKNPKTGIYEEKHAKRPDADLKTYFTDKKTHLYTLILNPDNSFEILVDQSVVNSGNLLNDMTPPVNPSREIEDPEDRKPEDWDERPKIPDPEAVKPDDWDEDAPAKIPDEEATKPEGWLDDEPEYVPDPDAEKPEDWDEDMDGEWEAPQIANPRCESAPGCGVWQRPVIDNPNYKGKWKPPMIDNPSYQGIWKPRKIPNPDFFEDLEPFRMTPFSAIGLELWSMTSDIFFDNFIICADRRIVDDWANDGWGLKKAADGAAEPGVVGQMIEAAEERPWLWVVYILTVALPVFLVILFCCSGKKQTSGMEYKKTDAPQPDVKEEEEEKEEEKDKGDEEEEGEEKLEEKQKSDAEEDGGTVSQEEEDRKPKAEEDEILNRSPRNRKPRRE

[2] = biological target: T2, ubiquitin E3 ligase TRIM59 (human (endogenous in 293T)) (UniProt Q8IWR1)
T2 sequence: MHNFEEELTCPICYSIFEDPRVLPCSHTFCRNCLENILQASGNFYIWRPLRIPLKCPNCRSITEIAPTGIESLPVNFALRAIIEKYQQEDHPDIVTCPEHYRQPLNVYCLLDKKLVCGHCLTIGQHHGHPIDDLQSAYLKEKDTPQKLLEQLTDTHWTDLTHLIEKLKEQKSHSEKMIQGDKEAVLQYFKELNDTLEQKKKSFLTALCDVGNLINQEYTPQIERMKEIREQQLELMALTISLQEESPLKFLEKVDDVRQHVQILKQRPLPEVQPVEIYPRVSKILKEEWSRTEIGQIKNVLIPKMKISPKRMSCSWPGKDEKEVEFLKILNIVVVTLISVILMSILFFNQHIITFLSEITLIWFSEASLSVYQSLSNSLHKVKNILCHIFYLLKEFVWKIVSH

[3] = biological target: T3, VPS39 (human (endogenous in 293T)) (UniProt Q96JC1)
T3 sequence: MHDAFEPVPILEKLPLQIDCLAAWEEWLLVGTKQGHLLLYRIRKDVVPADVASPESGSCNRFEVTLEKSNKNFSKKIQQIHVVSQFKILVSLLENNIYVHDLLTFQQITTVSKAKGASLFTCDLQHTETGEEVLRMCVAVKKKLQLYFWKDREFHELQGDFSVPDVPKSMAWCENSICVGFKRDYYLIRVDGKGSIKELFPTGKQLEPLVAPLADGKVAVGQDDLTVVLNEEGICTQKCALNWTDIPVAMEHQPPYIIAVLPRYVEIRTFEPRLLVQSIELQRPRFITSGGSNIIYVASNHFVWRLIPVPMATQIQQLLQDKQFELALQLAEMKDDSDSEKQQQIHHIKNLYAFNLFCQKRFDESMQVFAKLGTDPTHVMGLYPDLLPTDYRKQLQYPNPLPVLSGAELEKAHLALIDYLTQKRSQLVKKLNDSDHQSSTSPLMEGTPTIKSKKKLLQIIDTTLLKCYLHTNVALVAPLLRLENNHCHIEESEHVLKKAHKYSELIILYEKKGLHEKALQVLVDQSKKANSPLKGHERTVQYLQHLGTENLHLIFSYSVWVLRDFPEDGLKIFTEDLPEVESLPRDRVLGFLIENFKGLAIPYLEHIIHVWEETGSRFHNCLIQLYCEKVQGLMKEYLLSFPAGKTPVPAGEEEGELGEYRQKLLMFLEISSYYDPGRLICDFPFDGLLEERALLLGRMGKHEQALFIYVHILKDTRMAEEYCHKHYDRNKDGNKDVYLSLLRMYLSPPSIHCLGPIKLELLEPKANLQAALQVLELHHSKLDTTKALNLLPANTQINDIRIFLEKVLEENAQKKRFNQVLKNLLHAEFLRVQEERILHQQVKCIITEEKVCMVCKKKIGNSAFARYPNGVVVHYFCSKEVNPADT

[4] = biological target: SARS-CoV-2 ORF3a dDM6:∆aa171-173 mutant, HA-tagged (SARS-CoV-2) (UniProt P0DTC3)

**Q.** For “SARS-CoV-2 ORF3a dG188 mutant, HA-tagged (from UniProt P0DTC3 1-275)”, which binding [1] is on record?
**A.** binds

**Q.** And the binding [2]?
**A.** binds

**Q.** How did the binding [3] turn out when “SARS-CoV-2 ORF3a dDM6:∆aa171-173 mutant, HA-tagged (from UniProt P0DTC3 1-275)” was run?
**A.** no binding

B1: VPS39 (protein, UniProt Q96JC1 1-886)
chain: MHDAFEPVPILEKLPLQIDCLAAWEEWLLVGTKQGHLLLYRIRKDVVPADVASPESGSCNRFEVTLEKSNKNFSKKIQQIHVVSQFKILVSLLENNIYVHDLLTFQQITTVSKAKGASLFTCDLQHTETGEEVLRMCVAVKKKLQLYFWKDREFHELQGDFSVPDVPKSMAWCENSICVGFKRDYYLIRVDGKGSIKELFPTGKQLEPLVAPLADGKVAVGQDDLTVVLNEEGICTQKCALNWTDIPVAMEHQPPYIIAVLPRYVEIRTFEPRLLVQSIELQRPRFITSGGSNIIYVASNHFVWRLIPVPMATQIQQLLQDKQFELALQLAEMKDDSDSEKQQQIHHIKNLYAFNLFCQKRFDESMQVFAKLGTDPTHVMGLYPDLLPTDYRKQLQYPNPLPVLSGAELEKAHLALIDYLTQKRSQLVKKLNDSDHQSSTSPLMEGTPTIKSKKKLLQIIDTTLLKCYLHTNVALVAPLLRLENNHCHIEESEHVLKKAHKYSELIILYEKKGLHEKALQVLVDQSKKANSPLKGHERTVQYLQHLGTENLHLIFSYSVWVLRDFPEDGLKIFTEDLPEVESLPRDRVLGFLIENFKGLAIPYLEHIIHVWEETGSRFHNCLIQLYCEKVQGLMKEYLLSFPAGKTPVPAGEEEGELGEYRQKLLMFLEISSYYDPGRLICDFPFDGLLEERALLLGRMGKHEQALFIYVHILKDTRMAEEYCHKHYDRNKDGNKDVYLSLLRMYLSPPSIHCLGPIKLELLEPKANLQAALQVLELHHSKLDTTKALNLLPANTQINDIRIFLEKVLEENAQKKRFNQVLKNLLHAEFLRVQEERILHQQVKCIITEEKVCMVCKKKIGNSAFARYPNGVVVHYFCSKEVNPADT
**Q.** For B1, which binding [4] is on record?
**A.** no binding
